# The list is a part of this screen's results and no random one: it gathers tests that were run many times, whatever their T/C, doses with no T/C, and many T/C values between a quarter and a half above the control. Other doses and runs of a compound stand elsewhere. T/C gives the treated animals as a percentage of the vehicle group. Some entries give survivors of the animals treated and no T/C: the source files T/C as zero there, which appears to mark a toxic dose or a test without result, not a measured value. Some survivor counts are full or nearly so, which does not show that the dose was tolerated: the source hardly ever lists a survival T/C far under the control, and the zero likely stands for such cases as well. Counts of survivors are from the toxicity check (mostly the fifth day) where no day follows; animals may have died later. Schedules are NCI's codes, taken here to give the interval after Q, in days (D) or hours (H), and the number of doses after X. Some entries hold several experiments; the results are listed from low to high. For survival time, the PubChem record calls one and a half times the control and up active, and a quarter to a half above the control has no call in these data; cut-offs in other NCI protocols can differ. Some T/C values carry the count of animals alive at the toxicity check (mostly the fifth day); where none is given, no animal had died by that day.
# Test system: B6C3F1 mice, Lewis lung carcinoma iv, survival T/C
# Assay: NCI In Vivo Anticancer Drug Screen. Data for tumor model Lewis Lung Carcinoma (intravenous) in B6C3F1 mice
# Conditions: T/C endpoint: median survival time, schedule: Q01DX009 (ip), higher T/C = longer survival
# Procedure: The antitumor activity of compounds was measured in mice bearing transplantable tumors. Survival or tumor size were measured and the results are expressed as the measurement made in the treated group (T) divided by the measurement made in the vehicle treated control group (C). The tumor model used in this assay is Lewis Lung Carcinoma (intravenous) in B6C3F1 mice
# [1] = dose: 12.5 mg/kg/injection, vehicle: saline with Tween-80
# [2] = dose: 50.0 mg/kg/injection, vehicle: saline with Tween-80
# [3] = dose: 100.0 mg/kg/injection, vehicle: saline with Tween-80
# [4] = dose: 200.0 mg/kg/injection, vehicle: saline with Tween-80
# [5] = dose: 400.0 mg/kg/injection, vehicle: saline with Tween-80
# [6] = dose: 100.0 mg/kg/injection, vehicle: saline
# [7] = dose: 200.0 mg/kg/injection, vehicle: saline
# [8] = dose: 400.0 mg/kg/injection, vehicle: saline
# [9] = dose: 200.0 mg/kg/injection, vehicle: Klucel (hydroxypropylcellulose) (HPC)
# [10] = dose: 25.0 mg/kg/injection, vehicle: saline
# [11] = dose: 50.0 mg/kg/injection, vehicle: saline
# [12] = dose: 50.0 mg/kg/injection, vehicle: Klucel (hydroxypropylcellulose) (HPC)
# [13] = dose: 200.0 mg/kg/injection, vehicle: suspension in saline
# [14] = dose: 400.0 mg/kg/injection, vehicle: suspension in saline
# [15] = dose: 25.0 mg/kg/injection, vehicle: suspension in saline
# [16] = dose: 32.0 mg/kg/injection, vehicle: water
structure (smiles),measurement,setting,value
CC(=O)Nc1ccc(Nc2ccc(C(=C3C=CC(=[N+](C)CCC#N)C=C3)c3ccc(N(C)CCC#N)cc3)cc2)cc1,survivor count,[1],10 of 10
same,survivor count,"dose: 25.0 mg/kg/injection, vehicle: saline with Tween-80",10 of 10
same,survivor count,[2],8 of 10
same,survivor count,[3],1 of 10
same,survivor count,[4],0 of 10
same,survivor count,[5],0 of 10
O=NN(CCCl)C(=O)NC1CCC(CC2CCC(NC(=O)N(CCCl)N=O)CC2)CC1 (centres undefined),T/C,"dose: 6.25 mg/kg/injection, vehicle: saline with Tween-80",136 % of control
same,T/C,[1],136 % of control
same,survivor count,[3],10 of 10
same,survivor count,[4],10 of 10
CNc1cccnc1/C=N/NC(N)=S,survivor count,[3],10 of 10
same,survivor count,[4],10 of 10
same,survivor count,[5],3 of 10
Cc1cc(=O)n2c3c(c4c(cc13)c(CN(C)C)cc(=O)n4C)OC2,survivor count,[3],8 of 10
CC(=O)C1=C(O)C2(O)C(=O)c3c(c(C)c4ccc(C)c(O)c4c3O)CC2C(N)C1=O (centres undefined),survivor count,"dose: 120.0 mg/kg/injection, vehicle: saline + alcohol",1 of 10
CCC(C)Nc1ccc(N)cc1 (centres undefined),survivor count,"dose: 24.0 mg/kg/injection, vehicle: Klucel (hydroxypropylcellulose) (HPC)",2 of 10
O=C1N(CC2CO2)CCN1CC1CO1 (centres undefined),survivor count,[6],10 of 10
same,survivor count,[7],1 of 10
same,survivor count,[8],0 of 10
N=c1c(C(=O)OCc2ccccc2)ncc(CCl)n1O,survivor count,[5],4 of 10
Cc1nnc2ncccn12,T/C,[7],137 % of control
O=C(O)CCCCCCCC(=O)O,survivor count,"dose: 200.0 mg/kg/injection, vehicle: distilled water + Tween-80",6 of 10
same,survivor count,"dose: 400.0 mg/kg/injection, vehicle: distilled water + Tween-80",2 of 10
CCC1CCCCN1C(=S)N/N=C(\C)c1ccccn1 (centres undefined),survivor count,[2],8 of 10
same,survivor count,[3],0 of 10
COc1ccc(C[C@H](N)C(=O)NC2C(CO)OC(n3cnc4c(N(C)C)ncnc43)C2O)cc1 (some centres undefined),survivor count,"dose: 160.0 mg/kg/injection, vehicle: saline",8 of 10
C[C@]12CCC(=O)C=C1CC[C@@H]1[C@@H]2C(=O)C[C@@]2(C)[C@H]1CC[C@]2(O)C(=O)CO,survivor count,"dose: 800.0 mg/kg/injection, vehicle: Klucel (hydroxypropylcellulose) (HPC)",10 of 10
C/C=C/C=C1/OC(C)=C(C(C)=O)C1=O,survivor count,[4],8 of 10
same,survivor count,[5],7 of 10
C[PH+](C)C.C[PH+](C)C.[Au],survivor count,"dose: 20.0 mg/kg/injection, vehicle: saline",3 of 10
CCc1ccccc1N1CCN(C(=O)c2cc(OC)c(OC)c(OC)c2)CC1,survivor count,[9],10 of 10
CN(C)CCC(=O)C(=Cc1ccc(O)cc1)C(=O)CCN(C)C,survivor count,[8],0 of 6
NC(=O)c1[nH]nc(C2OC(CO)C(O)C2O)c1O (centres undefined),survivor count,"dose: 2.5 mg/kg/injection, vehicle: saline",8 of 8
same,survivor count,"dose: 5.0 mg/kg/injection, vehicle: saline",10 of 10 and 8 of 8
same,survivor count,"dose: 10.0 mg/kg/injection, vehicle: saline",5 of 8 and 10 of 10
COc1cccc2c1C(=O)c1c(O)c3c(c(O)c1C2=O)C[C@@](O)(/C(C)=N\NC(=O)CO)C[C@@H]3OC1CC(N)C(O)C(C)O1 (some centres undefined),survivor count,"dose: 12.5 mg/kg/injection, vehicle: saline",10 of 10
same,survivor count,[10],10 of 10
same,survivor count,[11],10 of 10
CN(C)N=Nc1ccccc1,T/C,[12],131 % of control
same,survivor count,"dose: 100.0 mg/kg/injection, vehicle: Klucel (hydroxypropylcellulose) (HPC)",10 of 10
same,survivor count,[9],0 of 10
COc1cc2cc3cc4cc(OC)c(OC)cc4c(C)[n+]3cc2cc1OC (tested in a mixture with another compound),survivor count,[7],10 of 10
same,survivor count,[8],4 of 10
COC(=O)c1ccoc1,survivor count,[8],5 of 10
CC12CC(C(=O)O)C3(O)CC(C)(C1)CC(C)(C2)C3 (centres undefined) (tested in a mixture with another compound),T/C,[12],134 % of control
O=C(Nc1ccccc1)c1c(O)[nH]c(=S)[nH]c1=O,T/C,[3],126 % of control [9 of 10 alive]
same,survivor count,[4],1 of 10
CCC(C(=O)O)C(=O)O.[NH-]CC1CCCC[N-]1.[Pt+2],T/C,[6],126 % of control
same,survivor count,[7],10 of 10
same,survivor count,[13],3 of 10
same,survivor count,[8],0 of 10
same,survivor count,[14],0 of 10
CC1=CC(=Nc2ccc(N(CCCl)CCCl)cc2)C=C(C)C1=O,survivor count,[2],10 of 10
same,survivor count,[3],10 of 10
same,survivor count,[4],6 of 10
CCCCCCCCCCCCCCCCCC(=O)Nc1ccn(C2OC(CO)C(O)C2O)c(=O)n1 (centres undefined),T/C,[15],129 % of control
same,survivor count,"dose: 100.0 mg/kg/injection, vehicle: suspension in saline",10 of 10
same,survivor count,[13],10 of 10
same,survivor count,[14],10 of 10
O=NN(CCCl)C(=O)Oc1cc(Cl)c(Cl)cc1Cl,survivor count,"dose: 92.5 mg/kg/injection, vehicle: Klucel (hydroxypropylcellulose) (HPC)",10 of 10
same,survivor count,"dose: 185.0 mg/kg/injection, vehicle: Klucel (hydroxypropylcellulose) (HPC)",2 of 10
Cc1c(N)nc(C(CC(N)=O)NCC(N)C(N)=O)nc1C(=O)NC(C(=O)NC(C)C(O)C(C)C(=O)NC(C(=O)NCCc1nc(-c2nc(C(=O)NCCCNCCCc3ccccn3)cs2)cs1)C(C)O)C(OC1OC(CO)C(O)C(O)C1OC1OC(CO)C(O)C(OC(N)=O)C1O)c1cnc[nH]1 (centres undefined),T/C,"dose: 16.0 mg/kg/injection, vehicle: saline",137 % of control
same,T/C,"dose: 25.0 mg/kg/injection, vehicle: saline + alcohol",133 % of control
same,T/C,[10],144 % of control
same,survivor count,"dose: 50.0 mg/kg/injection, vehicle: saline + alcohol",10 of 10
[Cl][Co]([Cl])[Cl].[NH-]CC[N-]CC[NH-],survivor count,[7],6 of 10
CCN(CC)CCOCCO,survivor count,[7],6 of 9
same,survivor count,[8],0 of 10
C=C(C)[C@@H]1CCc2c(O)c(O)c(=O)cc(C)c2C1,survivor count,"dose: 12.5 mg/kg/injection, vehicle: Klucel (hydroxypropylcellulose) (HPC)",8 of 10
C[n+]1c(-c2cccc(OCCOCCOc3cccc(-c4c5cc(N)ccc5c5ccc(N)cc5[n+]4C)c3)c2)c2cc(N)ccc2c2ccc(N)cc21,T/C,[16],139 % of control
same,survivor count,[16],10 of 10
same,survivor count,"dose: 64.0 mg/kg/injection, vehicle: water",7 of 10
same,survivor count,"dose: 128.0 mg/kg/injection, vehicle: water",0 of 10
COc1cccc(C2NC(=O)c3c(n[nH]c3N)S2)c1O (centres undefined),survivor count,[5],3 of 10
CCN(CC)CC[n+]1ccc2c(C)c3[nH]c4ccc(O)cc4c3c(C)c2c1,survivor count,"dose: 12.5 mg/kg/injection, vehicle: suspension in saline",10 of 10
same,survivor count,[10],9 of 10
same,survivor count,[15],10 of 10
same,survivor count,[11],8 of 10
same,survivor count,"dose: 50.0 mg/kg/injection, vehicle: suspension in saline",5 of 10

# Source: PubChem BioAssay AID276 (DTP/NCI, 2004)
